# Results deposited as PubChem BioAssay AID1159592 (NIAID, 2016).
# Aim: 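Toll-like receptor pathway genes that R848 needs to send NF-kB into the nucleus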
# Cells: RAW264.7 macrophages from mouse bearing reporters for p65 (GFP) and the Tnf promoter (mCherry)
# Knock-down reagent: single siRNA against mouse genes
# Time to read-out: 48 to 72 hours after siRNA transfection
# Treatment: R848 TLR ligand for 40 minutes before fixation; dose not given
# Detection: 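Nuclear over cytoplasmic GFP-p65 signal imaged 40 minutes after R848, plate-normalised by median and MAD, given as robust z versus negative controls, mean of replicates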
# Scale: NF-kB translocation z-score: higher = more p65 moved into the nucleus than in negative-control wells
# Active means: 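Active when the replicate-mean z lies above 1.5 or below -1.5; the depositor also grades absolute z in steps of 1, 1.5, 2 and 2.5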
# Meaning of the calls: active = strong change, either direction; inactive = little change
# The whole screen tested 756 reagents; shown is a random part of them. 147 of them (19%) count as active. 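Active covers both loss and gain of p65 entry; negative z means weaker NF-kB activation, positive means more nuclear p65.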 A number with no mark means an inactive call. The numbers tell different reagents against one gene apart. Reagent sequences are not shown. Not given: the amount of reagent.
gene,siRNA no.,"NF-kB translocation z-score, replicate mean"
Akt3,1,0.214
Akt3,2,-0.348
Akt3,3,-0.642
Akt3,4,-1.63 (active)
Akt3,5,-0.00428
Akt3,6,-1.75 (active)
Tollip,1,0.661
Tollip,2,-0.818
Tollip,3,-2.9 (active)
Tollip,4,-0.623
Tollip,5,0.341
Tollip,6,-1.21
Pik3cd,1,0.132
Pik3cd,2,-0.728
Pik3cd,3,-0.766
Pik3cd,4,-0.167
Pik3cd,5,-0.0873
Pik3cd,6,-0.532
Tirap,1,0.29
Tirap,2,0.222
Tirap,3,0.504
Tirap,4,0.149
Tirap,5,0.0137
Tirap,6,-0.06
Fos,1,-0.606
Fos,2,-0.859
Fos,3,-0.817
Fos,4,-0.379
Fos,5,-0.622
Fos,6,-0.352
Atf2,1,-0.544
Atf2,2,-1.24
Atf2,3,-0.0444
Atf2,4,-0.486
Atf2,5,-0.566
Atf2,6,0.456
Nfkbia,1,-1.68 (active)
Nfkbia,2,-3.39 (active)
Nfkbia,3,-0.874
Nfkbia,4,-2.05 (active)
Nfkbia,5,-1.22
Nfkbia,6,-0.045
Pik3r2,1,-0.882
Pik3r2,2,-1.03
Pik3r2,3,-0.181
Pik3r2,4,-0.561
Pik3r2,5,-0.244
Pik3r2,6,0.226
Ripk1,1,-1.46
Ripk1,2,1.03
Ripk1,3,0.962
Ripk1,4,-0.52
Ripk1,5,-1.09
Ripk1,6,0.585
Arf6,1,-0.334
Arf6,2,-0.705
Arf6,3,-1.07
Arf6,4,-0.651
Arf6,5,1.32
Arf6,6,0.254
Mapk11,1,0.54
Mapk11,2,-0.539
Mapk11,3,1.66 (active)
Mapk11,4,-0.863
Mapk11,5,-0.0159
Mapk11,6,0.809
Stat1,1,0.543
Stat1,2,1.19
Stat1,3,0.262
Stat1,4,0.564
Stat1,5,0.399
Stat1,6,-1.11
Tlr6,1,0.0128
Tlr6,2,0.0373
Tlr6,3,-1.38
Tlr6,4,0.028
Tlr6,5,0.856
Tlr6,6,0.0379
Cyld,1,-0.243
Cyld,2,0.28
Cyld,3,0.825
Cyld,4,-0.887
Cyld,5,1.09
Cyld,6,0.393
Otud5,1,-0.358
Otud5,2,-0.0686
Otud5,3,0.419
Otud5,4,0.317
Otud5,5,-1.14
Otud5,6,-0.254
Mapk12,1,-0.0259
Mapk12,2,-0.82
Mapk12,3,-1.45
Mapk12,4,0.283
Mapk12,5,-0.142
Mapk12,6,-0.646
Irak4,1,-0.129
Irak4,2,-3.77 (active)
Irak4,3,-2.67 (active)
Irak4,4,-1.91 (active)
Irak4,5,-1.18
Irak4,6,-0.0506
Akt1,1,-1.4
Akt1,2,-2.69 (active)
Akt1,3,0.741
Akt1,4,-0.36
Akt1,5,-1.36
Akt1,6,-1.22
Il12b,1,-0.741
Il12b,2,2.05 (active)
Il12b,3,-0.088
Il12b,4,-0.231
Il12b,5,-1.2
Il12b,6,-0.123
Akt2,1,-1.19
Akt2,2,1.02
Akt2,3,0.989
Akt2,4,-1.59 (active)
Akt2,5,0.227
Akt2,6,-0.238
Sigirr,1,-1.07
Sigirr,2,-2.68 (active)
Sigirr,3,-0.717
Sigirr,4,-1.81 (active)
Sigirr,5,-0.944
Sigirr,6,-0.706
Map3k7,1,-0.0187
Map3k7,2,-0.168
Map3k7,3,-1.36
Map3k7,4,0.448
Map3k7,5,-1.67 (active)
Map3k7,6,-1.35
Nfkbie,1,-0.793
Nfkbie,2,-0.715
Nfkbie,3,-0.974
Nfkbie,4,-1.63 (active)
Nfkbie,5,-1.42
Nfkbie,6,-0.354
Traf6,1,-2.53 (active)
Traf6,2,-2.58 (active)
Traf6,3,-2.88 (active)
Traf6,4,-1.65 (active)
Traf6,5,-2.1 (active)
Traf6,6,-2.46 (active)

Laid out differently: results already given.
{"gene":"Tlr6","siRNA no.":6,"NF-kB translocation z-score, replicate mean":0.0379}
{"gene":"Cyld","siRNA no.":1,"NF-kB translocation z-score, replicate mean":-0.243}
{"gene":"Cyld","siRNA no.":2,"NF-kB translocation z-score, replicate mean":0.28}
{"gene":"Cyld","siRNA no.":3,"NF-kB translocation z-score, replicate mean":0.825}
{"gene":"Cyld","siRNA no.":4,"NF-kB translocation z-score, replicate mean":-0.887}
{"gene":"Cyld","siRNA no.":5,"NF-kB translocation z-score, replicate mean":1.09}
{"gene":"Cyld","siRNA no.":6,"NF-kB translocation z-score, replicate mean":0.393}
{"gene":"Otud5","siRNA no.":1,"NF-kB translocation z-score, replicate mean":-0.358}
{"gene":"Otud5","siRNA no.":2,"NF-kB translocation z-score, replicate mean":-0.0686}
{"gene":"Otud5","siRNA no.":3,"NF-kB translocation z-score, replicate mean":0.419}
{"gene":"Otud5","siRNA no.":4,"NF-kB translocation z-score, replicate mean":0.317}
